These results are taken from US20050020810A1 (priority 2002, published 2005).

The nature of this series: general procedure: Fmoc solid-phase peptide synthesis; Rink Amide AM resin (Novabiochem); HBTU/HOBt/NMM. Particulars: for conjugation yield: conjugation step.
The mark [1] stands for this setting: whole synthesis, scale 0.111 mmol.
[2] abbreviates: whole synthesis, scale 0.101 mmol.
The mark [3] stands for this setting: whole synthesis, scale 0.067 mmol.
[4] abbreviates: whole synthesis, scale 0.0997 mmol.
Setting [5] is: whole synthesis, scale 0.100 mmol.

Turning to “2-Fluoroacetyl-β-Ala-Pro-His-Ser-Cys-Asn-NH2”, under setting [1], the isolated mass is given as 30 mg and the isolated yield is 40%.

4-Fluorobenzoyl-Pro-His-Ser-Cys-Asn-NH2 had an isolated yield (whole synthesis) of 19%.

Ac-PHSCNGGGGK-NH2: the isolated yield (whole synthesis) came to 70%.

Ac-Pro-His-Ser-Cys(Ac)-Asn-Dox returned a conjugation yield of 54%.

Ac-Pro-His-Ser-Cys(Me)-Asn-Dox registered a conjugation yield of 39%.

Turning to “Ac-Pro-His-Ser-Cys(Me)-Asn-Gly-Gly-Lys(4-fluorobenzoyl)-NH2”, the step yield (late stage modification step) was found to be 71%.

Under setting [2], “Ac-Pro-His-Ser-Cys-Asn-Gly-Gly-Lys(2-fluoroacetyl)-NH2” registered an isolated mass of 21 mg and an isolated yield of 23%.

With “Ac-Pro-His-Ser-Cys-Asn-Gly-Gly-Lys(4-fluorobenzoyl)-NH2”, under setting [3], the isolated mass worked out at 28 mg and the isolated yield came out at 44%.

For the substance “Ac-Pro-His-Ser-Cys-Asn-Gly-Gly-Lys(8-[(4′-fluorobenzyl)amino]suberoyl)-NH2”, under setting [4], the crude mass was determined as 42.3 mg, the isolated mass was 3.9 mg and the isolated yield amounted to 11%.

On to “Ac-Pro-His-Ser-Cys-Asn-NH—(CH2)4—CO-Lys(3-(4-hydroxyphenyl)propionyl)-NH2”, for which, under setting [5], the isolated mass is reported as 34 mg and the isolated yield stood at 35%.

For “Ac-Pro-His-Ser-Cys-Asn-NH—(CH2)6—CO-Lys(3-(4-hydroxyphenyl)propionyl)-NH2”, under setting [5], the isolated mass came out at 29 mg and the isolated yield is on record as 29%.

Take “Ac-Pro-His-Ser-Cys-Asn-β-Ala-Lys(3-(4-hydroxyphenyl)propionyl)-NH2”: under setting [5], the isolated mass is 39 mg and the isolated yield was 41%.

Where the note is “whole synthesis”, “Acetyl-Pro-His-Ser-Cys-Asn-Gly-Gly-Lys(Protoporphyrin)-NH2” had an isolated yield of 8.6%.

In turn, DTPA-PHSCN showed an isolated yield (whole synthesis, on resin-bound PHSCN (0.051 mmol)) of 27.7%.

Under “whole synthesis”, m-dPEG-β-Ala-His-Ser-Cys-Asn-NH2 returned an isolated yield of 21%.
